PubChem BioAssay AID652243, Drosophila RNAi Screening Center, 2013
Purpose: 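Knock-downs that decrease or increase androgen receptor reporter signal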 (primary screen). Cell system: Drosophila S2R+ cells. Reagents: long dsRNA against Drosophila genes. Timing: 72 h (48 h, then 24 h hormone). Challenge: synthetic androgen R1881 at 10 nM for 24 h. Read-out: 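Firefly light from an androgen-responsive reporter and Renilla control light per well, raw and unnormalised, for each of two replicates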. Direction: firefly reporter light: higher = more light from androgen-responsive reporter; Renilla control light: higher = more constitutive control signal (cell number, transfection). Active means: 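Hit when the log firefly-to-Renilla ratio dropped or increased by a fixed fold versus the mean of GFP or LacZ controls across duplicate plates; lowering cut given as 1.5 and as 3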. Calls: active = hit: reporter lowered or raised; inactive = no hit.
The deposit covers about 24,000 reagents; shown is an unselected part of those with a known target gene and a result. Of all reagents, 246 (1%) got an active call. 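Plates not normalised; calls are printed but the firefly/Renilla ratio behind them is not deposited; fold cut for lowering reported inconsistently.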 Raw values vary from plate to plate and are shown uncorrected. Unmarked entries are inactive. Names joined by + are all predicted targets of the reagent. Not given: the amount of reagent.

Cpr92F [DRSC15819]
- firefly reporter light, replicate 1: 3.59e5
- firefly reporter light, replicate 2: 3.73e5
- Renilla control light, replicate 1: 3.74e6
- Renilla control light, replicate 2: 4.48e6

smal [DRSC02318]
- firefly reporter light, replicate 1: 1.20e5 (active)
- firefly reporter light, replicate 2: 1.46e5
- Renilla control light, replicate 1: 1.92e6
- Renilla control light, replicate 2: 1.76e6

smal [DRSC02319]
- firefly reporter light, replicate 1: 1.67e5
- firefly reporter light, replicate 2: 1.14e5
- Renilla control light, replicate 1: 2.03e6
- Renilla control light, replicate 2: 1.24e6

smal [DRSC02320]
- firefly reporter light, replicate 1: 2.01e5
- firefly reporter light, replicate 2: 2.03e5
- Renilla control light, replicate 1: 2.25e6
- Renilla control light, replicate 2: 1.53e6

smal [DRSC02504]
- firefly reporter light, replicate 1: 2.37e5
- firefly reporter light, replicate 2: 1.48e5
- Renilla control light, replicate 1: 1.88e6
- Renilla control light, replicate 2: 1.66e6

smal [DRSC22866]
- firefly reporter light, replicate 1: 2.36e5
- firefly reporter light, replicate 2: 3.57e5
- Renilla control light, replicate 1: 8.16e5
- Renilla control light, replicate 2: 1.07e6

smal [DRSC26352]
- firefly reporter light, replicate 1: 7.40e5 (active)
- firefly reporter light, replicate 2: 6.10e5
- Renilla control light, replicate 1: 7.64e5
- Renilla control light, replicate 2: 5.28e5

Next part (2 carried over from the part before).
smal [DRSC22866]
- firefly reporter light, replicate 1: 2.36e5
- firefly reporter light, replicate 2: 3.57e5
- Renilla control light, replicate 1: 8.16e5
- Renilla control light, replicate 2: 1.07e6

smal [DRSC26352]
- firefly reporter light, replicate 1: 7.40e5 (active)
- firefly reporter light, replicate 2: 6.10e5
- Renilla control light, replicate 1: 7.64e5
- Renilla control light, replicate 2: 5.28e5

CG10562 [DRSC14257]
- firefly reporter light, replicate 1: 85328
- firefly reporter light, replicate 2: 73822
- Renilla control light, replicate 1: 5.41e5
- Renilla control light, replicate 2: 7.00e5

CG10562 [DRSC29099]
- firefly reporter light, replicate 1: 4.99e5
- firefly reporter light, replicate 2: 4.03e5
- Renilla control light, replicate 1: 1.18e6
- Renilla control light, replicate 2: 9.55e5

side-V [DRSC04189]
- firefly reporter light, replicate 1: 4.51e5
- firefly reporter light, replicate 2: 3.63e5
- Renilla control light, replicate 1: 1.77e6
- Renilla control light, replicate 2: 3.15e6

CG43666 + CG43667 + CG43668 [DRSC03829]
- firefly reporter light, replicate 1: 1.95e5
- firefly reporter light, replicate 2: 2.05e5
- Renilla control light, replicate 1: 4.22e5
- Renilla control light, replicate 2: 3.22e5

CG43666 + CG43667 + CG43668 [DRSC04233]
- firefly reporter light, replicate 1: 2.56e5
- firefly reporter light, replicate 2: 3.29e5
- Renilla control light, replicate 1: 1.80e6
- Renilla control light, replicate 2: 1.49e6
